Results from paper PMC6286964, “Morphine Binds Creatine Kinase B and Inhibits Its Activity” (Frontiers in Cellular Neuroscience, 2018).

Chains of the proteins cited; added tags and fusions are not shown. Lines headed by an entry give the natural chain unless they say otherwise; changes in a name come on top.
UniProt Q04447: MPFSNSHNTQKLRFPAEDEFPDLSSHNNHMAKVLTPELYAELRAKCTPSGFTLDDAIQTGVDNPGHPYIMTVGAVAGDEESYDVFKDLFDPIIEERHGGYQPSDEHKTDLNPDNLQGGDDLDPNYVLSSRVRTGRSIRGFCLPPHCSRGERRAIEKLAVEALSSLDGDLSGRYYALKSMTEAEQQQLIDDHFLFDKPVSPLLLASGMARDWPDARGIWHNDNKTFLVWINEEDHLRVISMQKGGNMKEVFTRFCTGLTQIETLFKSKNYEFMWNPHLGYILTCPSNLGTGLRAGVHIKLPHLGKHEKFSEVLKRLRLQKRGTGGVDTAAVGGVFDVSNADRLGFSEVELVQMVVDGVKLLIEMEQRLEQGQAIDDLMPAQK

Molecular target: T1, creatine kinase B (CK-B) (Mus musculus, UniProt Q04447)
T1 construct: gene Ckb
Assay: biochemical

SMILES: CN1CC[C@]23c4c5ccc(O)c4O[C@H]2[C@@H](O)C=C[C@H]3[C@H]1C5 [morphine]
- Kd: 10.8 µM
